PubChem BioAssay AID504791, Drosophila RNAi Screening Center – 2011
The screen tested about 23,000 reagents; below is an unselected part of those that have a named target and a result. Over the whole deposit, 199 (0.86%) are marked active. 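Plate-scaled ratios behind the calls are not deposited; printed light signals are raw; many rows marked increased or decreased are still called inactive.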 Unmarked entries are inactive. A plus sign joins genes that one reagent is predicted to hit. No sequences are given here.

Screen: 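Genes whose knock-down strengthens or weakens small-RNA reporter silencing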 (primary screen)
System: Drosophila S2-derived reporter cells
Knock-down reagent: long dsRNA against Drosophila genes, about 150-250 ng dsRNA per well (siRNA assay); about 80-120 ng (miRNA assay)
Time to read-out: about 5 days (siRNA assay); about 4 days (miRNA assay)
Challenge: copper sulfate induction of reporters: 25 µM (siRNA assay); 200 mM stated (miRNA assay), 1-2 days before reading
Measured: 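Dual luciferase assay: Renilla to firefly signal ratio in each well, scaled to the mean ratio of its plate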
Scale: siRNA reporter hit score: higher = 3 marks a strong hit with raised ratio; -3 a strong hit with lowered ratio
Active means: 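a well was a first-pass pick when its plate-scaled ratio rose above 1.5 (siRNA assay) or 1.6 (miRNA assay), or dropped below 0.6; a gene counted only if two separate dsRNAs agreed on retest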

| target gene | dsRNA | siRNA reporter hit score | stable siRNA reporter change | miRNA reporter change | stable assay Renilla, run 1 (luminescence) | stable assay firefly, run 1 (luminescence) |
| --- | --- | --- | --- | --- | --- | --- |
| dib (disembodied) | DRSC08711 | – | – | – | 7978 | 4.38e5 |
| CG13063 | DRSC09946 | – | – | – | 7238 | 4.42e5 |
| gt (giant) | DRSC18782 | – | – | – | 5807 | 2.69e5 |
| gt (giant) | DRSC23119 | – | – | – | 3908 | 2.02e5 |
| dar1 (dendritic arbor reduction 1) | DRSC08049 | – | – | – | 4360 | 3.70e5 |
| dar1 (dendritic arbor reduction 1) | DRSC08233 | – | – | – | 6971 | 4.53e5 |
| CG6733 | DRSC16103 | – | – | – | 8150 | 4.62e5 |
| Ir60a (Ionotropic receptor 60a) | DRSC04212 | – | – | – | 5976 | 3.15e5 |
| Archease | DRSC16025 | – | – | – | 7652 | 4.42e5 |
| Nup43 (Nucleoporin 43kD) | DRSC16279 | – | – | – | 10219 | 4.54e5 |
| CG12147 | DRSC12192 | – | – | – | 5703 | 3.66e5 |
| me31B (maternal expression at 31B) | DRSC03569 | – | – | – | 36802 | 4.67e5 |
| CG17027 | DRSC10238 | – | – | – | 10022 | 3.35e5 |
| TTLL1B (Tubulin tyrosine ligase-like 1B) | DRSC08594 | – | – | – | 5548 | 3.91e5 |
| Cog7 (Component of oligomeric golgi complex 7) | DRSC16331 | – | – | – | 6986 | 4.49e5 |
| phtf | DRSC05023 | – | – | – | 7586 | 1.54e6 |
| CG5681 | DRSC02876 | – | – | – | 7294 | 3.94e5 |
| CG14277 | DRSC02380 | – | – | – | 7468 | 3.65e5 |
| Mcm2 (Minichromosome maintenance 2) | DRSC16734 | – | – | – | 5744 | 4.25e5 |
| CG13989 | DRSC02321 | – | – | – | 6943 | 4.46e5 |
| Ccdc58 (Coiled-coil domain-containing 58) | DRSC10218 | – | – | – | 5954 | 2.53e5 |
| CG11367 | DRSC22434 | – | – | – | 4183 | 4.34e5 |
| CG14238 | DRSC14732 | – | – | – | 5787 | 4.09e5 |
| CG4661 | DRSC19910 | – | – | – | 5495 | 5.15e5 |
| CG3568 | DRSC18312 | – | – | – | 6135 | 3.20e5 |
| CG33109 | DRSC16533 | – | – | – | 7686 | 4.97e5 |
| RpL11 (Ribosomal protein L11) | DRSC07537 | – | – | – | 10672 | 3.40e5 |
| CG3492 | DRSC04373 | – | – | – | 2.08e5 | 1.50e6 |
| CG6701 | DRSC07007 | – | – | – | 9434 | 5.83e5 |
| CG10345 | DRSC14138 | – | – | – | 8601 | 3.27e5 |
| CG15517 | DRSC15056 | – | – | – | 5715 | 3.26e5 |
| CG15254 | DRSC01870 | – | – | – | 5211 | 4.04e5 |
| CG15254 | DRSC21765 | – | – | – | 9086 | 4.34e5 |
| CG13931 | DRSC08400 | – | – | – | 5916 | 2.76e5 |
| lin-52 | DRSC18106 | – | – | – | 7491 | 4.90e5 |
| Ent1 (Equilibrative nucleoside transporter 1) | DRSC00330 | – | – | – | 14940 | 5.01e5 |
| CG32694 | DRSC17844 | – | – | – | 4719 | 4.03e5 |
| CG32694 | DRSC17855 | – | – | – | 6459 | 4.82e5 |
| CG32694 | DRSC22670 | – | – | – | 5275 | 5.84e5 |
| Mst57Da (Male-specific RNA 57Da) | DRSC16744 | – | – | – | 8675 | 4.16e5 |
| fat-spondin | DRSC07617 | – | – | – | 10163 | 3.12e5 |
| Mip (Myoinhibiting peptide precursor) | DRSC10639 | – | – | reporter ratio lowered past the hit cutoff | 8136 | 2.90e5 |
| CG4041 | DRSC18339 | – | – | – | 5480 | 2.93e5 |
| SMC6 (Structural maintenance of chromosomes 6) | DRSC15829 | – | – | – | 6652 | 3.18e5 |
| CG2187 | DRSC15425 | – | – | – | 7361 | 4.73e5 |
| tei (teiresias) | DRSC07616 | – | – | – | 7272 | 4.32e5 |
| CG14609 | DRSC12553 | – | – | – | 7434 | 3.96e5 |
| CG6333 | DRSC10626 | – | – | – | 6424 | 3.73e5 |
| CysRS-m (Cysteinyl-tRNA synthetase, mitochondrial) | DRSC07129 | – | – | – | 10634 | 4.64e5 |
| Srpk79D (Serine-arginine protein kinase at 79D) | DRSC11668 | – | – | – | 10030 | 4.23e5 |
| Srpk79D (Serine-arginine protein kinase at 79D) | DRSC11856 | – | – | – | 7062 | 4.03e5 |
| CG8388 | DRSC07157 | – | – | – | 5760 | 3.16e5 |
| Mco3 (Multicopper oxidase 3) | DRSC15926 | – | – | – | 7348 | 4.41e5 |
| CG32640 + CG32641 | DRSC22885 | – | – | – | 4015 | 4.00e5 |
| Prdm13 (PR/SET domain 13) | DRSC09970 | – | – | – | 5774 | 4.84e5 |
| Npc2d (Niemann-Pick type C-2d) | DRSC14551 | – | – | – | 6610 | 4.07e5 |
| CG13793 | DRSC02297 | – | – | – | 8814 | 4.93e5 |
| dj (don juan) | DRSC12625 | – | – | – | 7276 | 3.36e5 |
| Prosalpha3T (Proteasome alpha3 subunit, Testis-specific) | DRSC15226 | – | – | – | 7155 | 3.92e5 |
| rdo (reduced ocelli) | DRSC02452 | – | – | – | 5750 | 1.23e6 |
| Cpsf73 (Cleavage and polyadenylation specificity factor 73) | DRSC16291 | – | – | – | 5983 | 3.37e5 |
| Cpsf73 (Cleavage and polyadenylation specificity factor 73) | DRSC28954 | – | – | reporter ratio lowered past the hit cutoff | – | – |
| ppk28 (pickpocket 28) | DRSC19919 | – | – | – | 5639 | 4.31e5 |
| Clamp (Chromatin-linked adaptor for MSL proteins) | DRSC03718 | – | – | – | 9005 | 2.51e5 |
| Clamp (Chromatin-linked adaptor for MSL proteins) | DRSC21682 | – | – | – | 8807 | 3.97e5 |
| CG14312 | DRSC14791 | – | – | – | 6766 | 2.69e5 |
| Rad9 | DRSC11263 | – | – | – | 7898 | 2.89e5 |
| CG14397 | DRSC02381 | – | – | – | 6955 | 4.13e5 |

Records listed so far whose gene name begins with T or t:
| target gene | dsRNA | siRNA reporter hit score | stable siRNA reporter change | miRNA reporter change | stable assay Renilla, run 1 (luminescence) | stable assay firefly, run 1 (luminescence) |
| --- | --- | --- | --- | --- | --- | --- |
| TTLL1B (Tubulin tyrosine ligase-like 1B) | DRSC08594 | – | – | – | 5548 | 3.91e5 |
| tei (teiresias) | DRSC07616 | – | – | – | 7272 | 4.32e5 |

Additional results:
| target gene | dsRNA | siRNA reporter hit score | stable siRNA reporter change | miRNA reporter change | stable assay Renilla, run 1 (luminescence) | stable assay firefly, run 1 (luminescence) |
| --- | --- | --- | --- | --- | --- | --- |
| CG16749 | DRSC15146 | – | – | – | 6323 | 5.20e5 |
| CG17806 | DRSC15276 | – | – | – | 7797 | 2.48e5 |
| Pmvk (Phosphomevalonate kinase) | DRSC02032 | – | – | – | 6126 | 3.67e5 |
| Prosalpha1R + Prosalpha1 | DRSC07515 | -3 | – | – | 7495 | 3.47e5 |
| thoc7 | DRSC08512 | – | – | – | 9791 | 3.13e5 |
| bel (belle) | DRSC16555 | – | reporter ratio raised past the hit cutoff (active) | – | 7688 | 2.86e5 |
| Ddx56 (DEAD-box helicase 56) | DRSC20567 | – | – | – | 5555 | 4.50e5 |
| Usp15-31 (Ubiquitin specific protease 15/31) | DRSC04426 | – | – | – | 26907 | 2.21e6 |
| Usp15-31 (Ubiquitin specific protease 15/31) | DRSC04532 | – | – | – | 4619 | 2.12e5 |
| CG13693 | DRSC00362 | – | – | – | 8634 | 6.62e5 |
| udt (undicht) | DRSC14214 | – | – | – | 7342 | 4.12e5 |
| CG12025 | DRSC08230 | – | – | – | 4799 | 3.14e5 |
| phr6-4 ((6-4)-photolyase) | DRSC03589 | – | – | – | 8406 | 6.32e5 |
| CG3356 | DRSC04358 | – | – | – | 8134 | 1.47e6 |
| Arl6IP1 (ADP-ribosylation factor-like 6 interacting protein 1) | DRSC14231 | – | – | – | 7887 | 4.39e5 |
| stet (stem cell tumor) | DRSC08246 | – | – | – | 6279 | 3.34e5 |
| stet (stem cell tumor) | DRSC08283 | – | – | – | 6451 | 4.67e5 |
| Gasp | DRSC12349 | – | – | – | 8506 | 4.69e5 |
| CG8112 | DRSC16377 | – | – | – | 6884 | 4.18e5 |
| CG3984 | DRSC15530 | – | – | – | 7799 | 4.50e5 |
| CG14659 | DRSC12245 | – | – | – | 7631 | 4.65e5 |
| CG7519 | DRSC11834 | – | – | – | 7600 | 4.23e5 |
| CG46339 | DRSC14136 | – | – | – | 8280 | 3.35e5 |
| rump (rumpelstiltskin) | DRSC16480 | – | – | – | 7898 | 3.74e5 |
| CG6962 | DRSC16153 | – | – | – | 9124 | 4.28e5 |
| Tspo (Translocator protein) | DRSC00533 | – | – | – | 1.15e5 | 3.17e5 |
| sno (strawberry notch) | DRSC20378 | – | reporter ratio lowered past the hit cutoff | – | 4454 | 5.14e5 |
| eyg (eyegone) | DRSC11344 | – | reporter ratio raised past the hit cutoff | – | 5731 | 2.12e5 |
| eyg (eyegone) | DRSC23136 | – | – | – | 5575 | 3.31e5 |
| eyg (eyegone) | DRSC26636 | – | – | reporter ratio raised past the hit cutoff | – | – |
| CG5973 | DRSC02918 | – | – | – | 1.82e5 | 1.40e5 |
| CG32547 | DRSC19263 | – | – | – | 4518 | 3.51e5 |
| CG32547 | DRSC19265 | – | – | – | 4568 | 3.73e5 |
| CG32547 | DRSC19474 | – | – | – | 4867 | 3.82e5 |
| CG32547 | DRSC19626 | – | – | – | 4996 | 3.94e5 |
| CG31493 | DRSC12583 | – | – | – | 8307 | 4.23e5 |
| Polr2G (RNA polymerase II subunit G) | DRSC16068 | – | – | – | 5431 | 2.63e5 |
| CG6209 | DRSC06968 | – | – | – | 5834 | 2.86e5 |
